## Binding screen against folded nucleic acids

Oligonucleotides screened, 5′ to 3′:
PreQ1: PreQ1 riboswitch RNA pseudoknot, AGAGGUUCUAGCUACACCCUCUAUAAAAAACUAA. From B. subtilis. About 170 hits among about 24,000 compounds.
SAM-II: SAM-II riboswitch RNA pseudoknot, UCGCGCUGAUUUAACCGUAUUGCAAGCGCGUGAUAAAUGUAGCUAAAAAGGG. About 200 hits among about 21,000 compounds.
TPP: TPP riboswitch RNA three-way junction, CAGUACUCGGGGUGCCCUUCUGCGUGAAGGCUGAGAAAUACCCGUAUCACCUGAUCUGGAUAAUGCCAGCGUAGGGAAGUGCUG. About 160 hits among about 24,000 compounds.

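Compounds were printed on reactive glass slides in duplicate spots, a dye-labelled oligonucleotide was laid over them, and the fluorescence left after washing was read. The data file lists only calls. An earlier report of the laboratory on the PreQ1, TPP and SAM-II riboswitches (doi:10.1038/s41467-019-09493-3) used 1 µM RNA for 2 h and required a mean Z-score above 3 (spot signal-to-noise against the whole library), a score well above that on a control array, and duplicate spots agreeing (coefficient of variation under 100); it then also set aside compounds that hit other targets, which this list keeps. The cut-offs behind this list may differ. The calls come from the array alone, and fixing a compound to the slide can hide its binding.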
Key: Y = hit, N = tested without a hit.
This is an unselected part of the compounds tested.
A target missing from an entry has no call listed here.

{"compound": "COc1cc(N2CCn3c(nc4cc(Cl)ccc43)C2)ccc1N", "PreQ1": "N", "TPP": "N"}
{"compound": "CCC(C)Nc1ncnc2c1c(-c1ccccc1)cn2-c1ccccc1OC", "stereo": "stereo not shown", "PreQ1": "N", "TPP": "N"}
{"compound": "Cn1c(=O)c2c(nc(NCc3ccccc3)n2C)n(C)c1=O", "PreQ1": "N", "SAM-II": "N", "TPP": "N"}
{"compound": "CN(Cc1cccnc1N)C1CCCN(Cc2ccccc2F)C1", "stereo": "stereo not shown", "PreQ1": "N", "SAM-II": "N", "TPP": "N"}
{"compound": "CSc1ccc(C2C(C#N)=C(N)Oc3c2ccc2ccccc32)cc1", "stereo": "stereo not shown", "PreQ1": "N", "SAM-II": "N", "TPP": "N"}
{"compound": "OCC(O)C(O)C(O)c1cnn(-c2ccccc2)n1", "stereo": "stereo not shown", "PreQ1": "N", "SAM-II": "N", "TPP": "N"}
{"compound": "Cc1nc(C)c(-c2csc(Nc3ccc(Cl)cc3)n2)s1", "PreQ1": "N", "SAM-II": "N", "TPP": "N"}
{"compound": "CCCn1cnc2cc(NCc3cccc(OC)c3)ccc21", "PreQ1": "N", "SAM-II": "N", "TPP": "N"}
{"compound": "C[C@H](NC(=O)C(=O)Nc1ccccc1C(C)(C)C)C(=O)N[C@@H](CC(=O)O)C(=O)COc1c(F)c(F)cc(F)c1F", "PreQ1": "N", "SAM-II": "N", "TPP": "N"}
{"compound": "COCCn1c(C)c(C)c(C#N)c1N", "PreQ1": "N", "SAM-II": "N", "TPP": "N"}
{"compound": "Cc1ccc(-c2nccn2CCCO)c(Cl)c1Cl", "PreQ1": "N", "SAM-II": "N", "TPP": "N"}
{"compound": "NC1C(c2ccccc2)Nc2ncnn2C1c1ccccc1", "stereo": "stereo not shown", "PreQ1": "N", "SAM-II": "N", "TPP": "N"}
{"compound": "Cc1ccc(C)c(OCC(O)Cn2c(C3CC(=O)N(Cc4ccccc4)C3)nc3ccccc32)c1", "stereo": "stereo not shown", "PreQ1": "N", "TPP": "N"}
{"compound": "COc1ccc(C(=O)c2sc3nc(C)cc(-c4cccs4)c3c2N)cc1OC", "PreQ1": "N", "SAM-II": "N", "TPP": "N"}
{"compound": "Nc1nc(C=Cc2cccs2)n2c(n1)nc1ccccc12", "PreQ1": "N", "SAM-II": "N", "TPP": "N"}
{"compound": "Cc1ccc(Nc2nc(-c3ccc(S(=O)(=O)N4CCOCC4)cc3)cs2)cc1Cl", "PreQ1": "Y", "SAM-II": "N", "TPP": "N"}
{"compound": "O=C(NCc1ccccn1)c1nn(-c2ccc(F)cc2)nc1CO", "PreQ1": "N", "TPP": "N"}
{"compound": "CCOC(=O)C1=C(N)OC(c2ccccc2)=C(C(=O)OCC)C12C(=O)Nc1ccccc12", "stereo": "stereo not shown", "PreQ1": "N", "SAM-II": "N", "TPP": "N"}
{"compound": "O=C(Nc1ccc2ncccc2c1)Nc1ccc2ncccc2c1", "PreQ1": "N", "SAM-II": "N", "TPP": "N"}
{"compound": "NS(=O)(=O)c1cc2c(cc1Cl)NCNS2(=O)=O", "PreQ1": "N", "SAM-II": "N", "TPP": "N"}
{"compound": "CCc1ccccc1NC(=O)c1nnn(CC(=O)Nc2ccccc2C)c1N", "PreQ1": "N", "SAM-II": "N", "TPP": "N"}
{"compound": "O=c1c(-c2ccc(O)cc2)coc2cc(O[C@@H]3O[C@H](CO)[C@H](O)[C@H](O)[C@H]3O)ccc12", "PreQ1": "N", "SAM-II": "N", "TPP": "N"}

Repeated from the top, 2 entries:

- COc1cc(N2CCn3c(nc4cc(Cl)ccc43)C2)ccc1N | PreQ1: N; TPP: N
- CCC(C)Nc1ncnc2c1c(-c1ccccc1)cn2-c1ccccc1OC (stereo not shown) | PreQ1: N; TPP: N

Calls as published in the ROBIN set (doi:10.1002/anie.202211358).